Test results published in PubChem BioAssay AID493014 (National Center for Advancing Translational Sciences (NCATS), 2011).
This is one part of the list. These are further read-outs of the screen, such as a control signal, another cell line or another target. No call is given for them. Compounds called inactive in the main read-out are mostly missing here. Words in brackets tell the shape of the fitted curve; partial curves, single points and poor fits give uncertain potencies.

Assay: qHTS Assay to Find Inhibitors of Chronic Active B-Cell Receptor Signaling
Details: ABC-DLBCL IkBa-CBG/CBR reporter, luminescence ratio (green luciferase fused to IkBa over red control in TMD8 lymphoma cells), 4 h
In short: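 Concentration-response series (up to 46 uM) were applied to TMD8 dual-reporter cells for 4 h at 37C with doxycycline. Green/red ratio, after filter-overlap correction, defined %Activity; red signal alone was normalised to basal cells and zero luminescence.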

[1] = measured here: CBR red luminescence, cell number
[2] = measured here: IkBa-CBG green luminescence

Structure (SMILES)	AC50 [1]	AC50 [2]
Cc1ccnc(NC(=S)N2CCN(c3cccc(C(F)(F)F)c3)CC2)c1	25.1 µM [rising, single point]	
Cc1ccc(NC(=O)N2CCSc3ccccc32)cc1	15.8 µM [rising, single point]	
COc1ccccc1N1CCN(/N=C/c2ccc(O)c(O)c2)CC1	35.5 µM [falling, single point]	
c1csc(CNc2ncnc3nc[nH]c23)c1	25.9 µM [falling, single point]	
COc1ccc2nc(NC(=O)c3ccc(NS(=O)(=O)c4cccs4)cc3)sc2c1	9.2 µM [falling, partial curve]	
CC[C@@]12C(=O)N(c3ccc(OC)cc3)C(=O)N1[C@H](c1cccc(C)c1)[C@@H]1C(=O)N(Cc3ccccc3)C(=O)[C@@H]12	5.01 µM [falling, partial curve]	
CC(O)CSc1nc2c(c(=O)[nH]c(=O)n2C)n1CC(O)COc1ccccc1 (stereo not drawn)	17.8 µM [rising, single point]	
CN(C)CC#Cc1cncc(C(=O)NNC(=O)Nc2ccc(Cl)cc2)c1	22.4 µM [falling, partial curve, poor fit]	
COc1ccc(CCNC(=O)C(=O)NCC2CCCN2S(=O)(=O)c2cccs2)cc1OC (stereo not drawn)	5.17 µM [rising, single point]	
C/C(=N\NC(=O)c1sccc1C)c1ccncc1	1.26 µM [falling, full curve]	
O=C(CCCN1C(=O)c2cccc3cccc(c23)C1=O)NC1CCS(=O)(=O)C1 (stereo not drawn)	12.6 µM [falling, single point]	
CCOc1ccc(S(=O)(=O)N2CCN(c3ccccc3)CC2)c2cccnc12	5.01 µM [falling, full curve, poor fit]	
CC(C)(C)C(=O)O/N=C(\N)c1c(Cl)cccc1Cl	7.08 µM [rising, partial curve]	
O=C(CCC(=O)N1CCOCC1)NCCc1ccc(F)cc1	6.51 µM [rising, single point]	
Cc1cccc(NC(=O)C2CCN(S(=O)(=O)c3cccc4nsnc34)CC2)n1	10 µM [falling, single point]	
Cn1c(Cn2nnc3ccccc32)nnc1SCC(=O)c1ccc(F)cc1	35.5 µM [falling, single point]	
O=C(CSc1ncn[nH]1)Nc1ccccc1C(=O)O	11.2 µM [falling, single point]	
C=CCOc1c(Br)cc(/C=N/O)cc1OCC		25.9 µM [falling, partial curve, poor fit]
COc1ccccc1C(=O)NNC(=O)c1nn(Cc2ccccc2)c(=O)c2ccccc12	17.8 µM [rising, partial curve]	22.4 µM [falling, single point]
CSc1nc2nc(C(F)(F)F)cc(-c3ccccc3)n2n1	32.6 µM [falling, single point]	
O=C1CN(C(=O)CSc2nnnn2-c2ccc(Cl)cc2)c2ccccc2N1	7.94 µM [rising, partial curve]	

Structure (SMILES)	AC50 [1]	AC50 [2]
O=C(Nc1ccc(F)cc1)c1cccc(N2C(=O)C3C4C=CC(C5CC45)C3C2=O)c1 (stereo not drawn)	11.2 µM [falling, single point]	
CCN(CC)S(=O)(=O)c1ccc(C(=O)C(C#N)c2ccccn2)cc1 (stereo not drawn)	2.82 µM [rising, full curve]	
Cc1ccc(-n2ncc3c(NCCO)ncnc32)cc1Cl	14.1 µM [falling, single point]	
CCN(CC)S(=O)(=O)c1ccc2c3c(cccc13)C(=O)N2	29.1 µM [rising, single point]	
O=C(COC(=O)c1cc([N+](=O)[O-])ccc1N1CCOCC1)c1ccc(OC(F)F)cc1OC(F)F	3.26 µM [rising, full curve, poor fit]	
O=C(CCCN1C(=O)/C(=C/c2cccs2)SC1=S)NNC(=O)c1ccccc1O	1.46 µM [falling, full curve, poor fit]	
COc1ccc2c(Cl)c(C(=O)NCCCn3ccnc3)sc2c1Cl	5.62 µM [rising, partial curve]	
CCOC(=O)C1=C(COC(=O)c2c(OC)cccc2OC)NC(=O)NC1C (stereo not drawn)	29.1 µM [falling, single point]	
CCCN1C(=O)c2ccccc2NC1c1ccc(OC)c(CSc2ccccn2)c1 (stereo not drawn)	29.1 µM [falling, single point]	
COc1ccc(S(=O)(=O)NN=C2CCCCC2)cc1	0.112 µM [falling, full curve, poor fit]	
O=C1Nc2c(c(=O)[nH]c(=O)n2-c2ccccc2)C1(Nc1ncccn1)C(F)(F)F (stereo not drawn)	25.9 µM [rising, single point]	
O=C(CCn1c(=O)[nH]c2ccsc2c1=O)NCCc1ccc(Cl)cc1	4.11 µM [rising, full curve, poor fit]	
COc1nnc(-c2ccccc2)s1	3.26 µM [rising, single point]	
C=CCn1c(=NC(=O)CC)n(C)c2ccccc21	4.61 µM [rising, partial curve, poor fit]	
CCN1CCN(c2nc3ccccn3c(=O)c2C=O)CC1	3.55 µM [rising, single point]	
Cc1cccc(NC(=O)C2CCCN(C(=O)Nc3ccc(F)cc3)C2)c1C (stereo not drawn)	35.5 µM [rising, single point]	
O=C(c1cc(-c2ccc(Cl)cc2)on1)N1CCOCC1	1.64 µM [falling, full curve, poor fit]	
N#Cc1c(C#N)c(-c2ccccc2)n(-c2ccccc2)c1N	3.55 µM [rising, partial curve, poor fit]	
COc1ccc(/C=C(/NC(=O)c2ccccc2OC)C(=O)Nc2ccc(C(=O)O)cc2)cc1	1.78 µM [rising, full curve, poor fit]	
O=C(CN1C(=O)c2ccccc2C1=O)Nc1ccccc1C(=O)N1CCCC1	14.6 µM [rising, partial curve, poor fit]	
CCN(CC)S(=O)(=O)c1cccc(C(=O)N[C@H](C(=O)Nc2nc3ccccc3s2)C(C)C)c1	29.1 µM [rising, single point]	

Full records as entered above.
COc1nnc(-c2ccccc2)s1 reads AC50 [1]: 3.26 µM [rising, single point]
O=C(CCn1c(=O)[nH]c2ccsc2c1=O)NCCc1ccc(Cl)cc1 reads AC50 [1]: 4.11 µM [rising, full curve, poor fit]
